In paper PMC9192753 one finds binding data, which are given here for 3 molecules.

The chains behind the UniProt entries cited, without tags or fusion partners.
UniProt Q96Q05: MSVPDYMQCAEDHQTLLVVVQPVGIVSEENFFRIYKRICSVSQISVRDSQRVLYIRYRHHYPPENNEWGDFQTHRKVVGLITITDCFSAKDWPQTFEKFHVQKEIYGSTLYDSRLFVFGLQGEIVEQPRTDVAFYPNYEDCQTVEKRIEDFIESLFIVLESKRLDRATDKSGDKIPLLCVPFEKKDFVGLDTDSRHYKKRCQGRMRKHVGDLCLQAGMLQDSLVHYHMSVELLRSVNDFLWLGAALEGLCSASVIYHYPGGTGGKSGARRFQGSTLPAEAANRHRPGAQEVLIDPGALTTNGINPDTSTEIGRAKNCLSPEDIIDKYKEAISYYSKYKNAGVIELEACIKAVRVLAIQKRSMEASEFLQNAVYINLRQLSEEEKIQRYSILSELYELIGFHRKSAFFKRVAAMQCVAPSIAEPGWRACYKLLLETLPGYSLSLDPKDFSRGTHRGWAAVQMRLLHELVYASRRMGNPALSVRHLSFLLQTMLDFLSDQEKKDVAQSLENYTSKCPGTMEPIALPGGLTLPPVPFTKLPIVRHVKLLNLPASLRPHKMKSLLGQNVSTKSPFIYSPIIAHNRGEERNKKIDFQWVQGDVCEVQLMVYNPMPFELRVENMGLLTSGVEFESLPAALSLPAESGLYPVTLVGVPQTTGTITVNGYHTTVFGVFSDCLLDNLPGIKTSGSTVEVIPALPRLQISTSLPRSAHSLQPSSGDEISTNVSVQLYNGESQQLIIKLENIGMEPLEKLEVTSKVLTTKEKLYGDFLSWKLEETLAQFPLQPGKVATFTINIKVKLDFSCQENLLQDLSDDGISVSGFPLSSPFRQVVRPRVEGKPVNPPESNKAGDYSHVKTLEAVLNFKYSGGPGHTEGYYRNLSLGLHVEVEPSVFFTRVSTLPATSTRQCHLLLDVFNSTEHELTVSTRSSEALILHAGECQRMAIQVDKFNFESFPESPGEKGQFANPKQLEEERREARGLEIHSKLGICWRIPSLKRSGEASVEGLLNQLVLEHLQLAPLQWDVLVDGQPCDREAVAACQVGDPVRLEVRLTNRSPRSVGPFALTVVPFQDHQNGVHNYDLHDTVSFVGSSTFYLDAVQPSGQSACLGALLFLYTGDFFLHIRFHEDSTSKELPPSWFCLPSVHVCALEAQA

These are yes or no findings as the source states them, for the method shown. Binding seen in cells or lysates may run through a third protein. Some entries that bind do so weakly or less than the wild type. For some of these results: Sequences can lack the tags named with a protein.

Test [1] addresses NIK- and IKK-β-binding protein (NIBP), endogenous (human (endogenous in HCT116 and RKO)) (UniProt Q96Q05). Put plainly: proximity ligation; endogenous RNF138 and NIBP in HCT116 and RKO cells, confocal images; IgG as controls.
Test [2] shares this target. The test is described as follows: co-IP; endogenous RNF138 and NIBP, HCT116 total lysates and nuclear extracts; IgG as control.
Another test concerns the target HA-NIBP (UniProt Q96Q05). Put plainly: co-IP; HA-NIBP with full-length or truncated Flag-RNF138 mutants in 293T cells.

B1: RING finger protein 138 (RNF138), endogenous (protein, UniProt Q8WVD3 1-245)
chain: MAEDLSAATSYTEDDFYCPVCQEVLKTPVRTTACQHVFCRKCFLTAMRESGAHCPLCRGNVTRRERACPERALDLENIMRKFSGSCRCCAKQIKFYRMRHHYKSCKKYQDEYGVSSIIPNFQISQDSVGNSNRSETSTSDNTETYQENTSSSGHPTFKCPLCQESNFTRQRLLDHCNSNHLFQIVPVTCPICVSLPWGDPSQITRNFVSHLNQRHQFDYGEFVNLQLDEETQYQTAVEESFQVNI
Turning to B1, the binding result in test [1] and in test [2] was “binds” each time.

B2: Flag-RNF138 full-length (protein, UniProt Q8WVD3 1-245)
chain: MAEDLSAATSYTEDDFYCPVCQEVLKTPVRTTACQHVFCRKCFLTAMRESGAHCPLCRGNVTRRERACPERALDLENIMRKFSGSCRCCAKQIKFYRMRHHYKSCKKYQDEYGVSSIIPNFQISQDSVGNSNRSETSTSDNTETYQENTSSSGHPTFKCPLCQESNFTRQRLLDHCNSNHLFQIVPVTCPICVSLPWGDPSQITRNFVSHLNQRHQFDYGEFVNLQLDEETQYQTAVEESFQVNI
In the case of B2, the binding result in the test with HA-NIBP was “binds”.

B3: Flag-RNF138 catalytic cysteines C/A mutant (C18A/C54A) (protein, UniProt Q8WVD3 1-245)
chain: MAEDLSAATSYTEDDFYAPVCQEVLKTPVRTTACQHVFCRKCFLTAMRESGAHAPLCRGNVTRRERACPERALDLENIMRKFSGSCRCCAKQIKFYRMRHHYKSCKKYQDEYGVSSIIPNFQISQDSVGNSNRSETSTSDNTETYQENTSSSGHPTFKCPLCQESNFTRQRLLDHCNSNHLFQIVPVTCPICVSLPWGDPSQITRNFVSHLNQRHQFDYGEFVNLQLDEETQYQTAVEESFQVNI
In the case of B3, in the test with HA-NIBP, the binding entry is on record as “binds”.
